Measured values as given in PMC6042396.
These are yes or no findings as the source states them, for the method shown. For some of these results: In cells and extracts the contact can be indirect. Some binding calls cover weakened binding; strength is not graded here. Each block holds one substance with its values, some of them ahead of it.

Amino acid sequences for entries named in this document (tags omitted).
UniProt Q9H4A6: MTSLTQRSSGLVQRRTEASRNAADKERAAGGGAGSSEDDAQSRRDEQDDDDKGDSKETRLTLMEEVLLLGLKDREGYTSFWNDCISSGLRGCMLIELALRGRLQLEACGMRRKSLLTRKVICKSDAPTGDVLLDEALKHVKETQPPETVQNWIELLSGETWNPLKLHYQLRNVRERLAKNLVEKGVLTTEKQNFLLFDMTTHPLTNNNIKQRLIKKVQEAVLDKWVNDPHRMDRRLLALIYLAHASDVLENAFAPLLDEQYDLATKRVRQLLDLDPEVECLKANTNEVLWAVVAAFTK
UniProt O00506: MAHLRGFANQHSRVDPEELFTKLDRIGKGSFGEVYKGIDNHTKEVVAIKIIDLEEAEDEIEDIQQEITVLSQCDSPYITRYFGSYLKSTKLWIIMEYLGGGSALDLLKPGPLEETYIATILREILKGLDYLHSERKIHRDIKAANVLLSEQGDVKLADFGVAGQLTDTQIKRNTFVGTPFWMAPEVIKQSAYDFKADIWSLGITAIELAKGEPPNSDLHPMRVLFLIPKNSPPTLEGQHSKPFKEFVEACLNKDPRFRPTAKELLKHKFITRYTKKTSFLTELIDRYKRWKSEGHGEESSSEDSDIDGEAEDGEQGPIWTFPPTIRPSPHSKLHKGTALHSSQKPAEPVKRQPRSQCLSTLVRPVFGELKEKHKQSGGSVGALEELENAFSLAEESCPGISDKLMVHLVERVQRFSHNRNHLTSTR

How the values were obtained:
Myc-GOLPH3 = Myc-GOLPH3 (UniProt Q9H4A6); test: co-IP; reciprocal IP: c-Myc antibody on rProtein A sepharose beads, 500 μg of total protein in cell lysis buffer, 4 h at 4 °C; western blot with Flag antibody
His-STK25 (human) = His-STK25 (human) (UniProt O00506); test: pull-down; His-tag pull-down: 10 μg of His-STK25 mixed with 10 μg of GST-GOLPH3 or GST, Ni-NTA agarose; western blot with anti-GST and anti-His tag; both purified
GST-GOLPH3 = GST-GOLPH3 (UniProt Q9H4A6); test: pull-down; GST pull-down: 10 μg of His-STK25 mixed with 10 μg of GST-GOLPH3 or GST, glutathione sepharose 4B beads; western blot with anti-GST and anti-His tag; both purified
[1] = molecular target: Flag-STK25 (serine/threonine protein kinase 25) (human) (UniProt O00506); test: co-IP; Flag antibody on rProtein A sepharose beads, 500 μg of total protein in cell lysis buffer, 4 h at 4 °C; western blot with c-Myc antibody

binding (Myc-GOLPH3): binds
Substance: Flag-STK25 (serine/threonine protein kinase 25) (from UniProt O00506 1-426) (enzyme)

binding (His-STK25 (human)): binds
Substance: GST-GOLPH3 (from UniProt Q9H4A6 1-298)

binding (GST-GOLPH3): binds
Substance: His-STK25 (from UniProt O00506 1-426) (enzyme)

binding [1]: binds
Substance: Myc-GOLPH3 (from UniProt Q9H4A6 1-298)
